Here are results for ten targets from the supplement of paper PMC12819154, “High-throughput peptide-centric local stability assay extends protein–ligand identification to membrane proteins, tissues and bacteria” (Nature Structural & Molecular Biology, 2025).

The chains behind the UniProt entries cited, without tags or fusion partners. Where a name states a change or a piece, a line headed by the entry shows the natural chain unless it says otherwise.
UniProt Q9NYV6: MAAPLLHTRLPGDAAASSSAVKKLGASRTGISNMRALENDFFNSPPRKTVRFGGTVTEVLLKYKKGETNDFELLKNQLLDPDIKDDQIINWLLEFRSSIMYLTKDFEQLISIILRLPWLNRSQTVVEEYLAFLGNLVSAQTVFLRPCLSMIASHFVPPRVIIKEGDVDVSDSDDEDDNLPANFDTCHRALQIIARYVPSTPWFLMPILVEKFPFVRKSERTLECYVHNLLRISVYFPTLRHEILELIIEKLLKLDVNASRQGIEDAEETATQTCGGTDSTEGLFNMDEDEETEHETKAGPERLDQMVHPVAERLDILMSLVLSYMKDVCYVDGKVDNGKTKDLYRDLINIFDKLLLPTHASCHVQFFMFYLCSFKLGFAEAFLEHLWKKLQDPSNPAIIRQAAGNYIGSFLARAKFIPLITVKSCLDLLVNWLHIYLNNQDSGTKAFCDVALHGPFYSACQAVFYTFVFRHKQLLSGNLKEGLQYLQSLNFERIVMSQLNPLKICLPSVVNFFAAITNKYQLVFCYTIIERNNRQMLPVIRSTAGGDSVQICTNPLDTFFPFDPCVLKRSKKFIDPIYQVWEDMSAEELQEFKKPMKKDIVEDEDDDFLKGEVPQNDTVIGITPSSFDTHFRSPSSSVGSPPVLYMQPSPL
UniProt Q9NRY5: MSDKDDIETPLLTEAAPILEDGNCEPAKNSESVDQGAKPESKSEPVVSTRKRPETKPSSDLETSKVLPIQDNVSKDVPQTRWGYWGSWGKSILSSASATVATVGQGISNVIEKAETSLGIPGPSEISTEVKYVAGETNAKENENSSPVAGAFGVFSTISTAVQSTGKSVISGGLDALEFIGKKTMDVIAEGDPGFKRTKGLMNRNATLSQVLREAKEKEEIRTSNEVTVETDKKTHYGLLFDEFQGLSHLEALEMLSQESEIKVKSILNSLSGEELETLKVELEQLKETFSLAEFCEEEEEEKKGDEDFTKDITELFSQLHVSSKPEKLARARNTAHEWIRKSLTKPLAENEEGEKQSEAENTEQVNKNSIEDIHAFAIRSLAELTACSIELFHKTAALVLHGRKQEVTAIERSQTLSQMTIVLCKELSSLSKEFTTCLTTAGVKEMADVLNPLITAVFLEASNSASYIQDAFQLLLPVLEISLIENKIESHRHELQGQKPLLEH
UniProt Q9NXR7, whole entry: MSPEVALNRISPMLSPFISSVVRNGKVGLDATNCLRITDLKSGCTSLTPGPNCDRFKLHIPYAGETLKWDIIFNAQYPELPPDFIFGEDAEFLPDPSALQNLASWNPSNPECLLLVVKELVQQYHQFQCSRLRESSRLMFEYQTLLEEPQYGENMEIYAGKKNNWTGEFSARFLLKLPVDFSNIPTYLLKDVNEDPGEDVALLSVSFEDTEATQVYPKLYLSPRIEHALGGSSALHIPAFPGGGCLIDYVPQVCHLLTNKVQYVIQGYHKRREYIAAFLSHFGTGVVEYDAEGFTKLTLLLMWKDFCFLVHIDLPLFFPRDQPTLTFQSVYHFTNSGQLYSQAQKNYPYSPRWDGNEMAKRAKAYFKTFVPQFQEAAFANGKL
UniProt Q9NQV6: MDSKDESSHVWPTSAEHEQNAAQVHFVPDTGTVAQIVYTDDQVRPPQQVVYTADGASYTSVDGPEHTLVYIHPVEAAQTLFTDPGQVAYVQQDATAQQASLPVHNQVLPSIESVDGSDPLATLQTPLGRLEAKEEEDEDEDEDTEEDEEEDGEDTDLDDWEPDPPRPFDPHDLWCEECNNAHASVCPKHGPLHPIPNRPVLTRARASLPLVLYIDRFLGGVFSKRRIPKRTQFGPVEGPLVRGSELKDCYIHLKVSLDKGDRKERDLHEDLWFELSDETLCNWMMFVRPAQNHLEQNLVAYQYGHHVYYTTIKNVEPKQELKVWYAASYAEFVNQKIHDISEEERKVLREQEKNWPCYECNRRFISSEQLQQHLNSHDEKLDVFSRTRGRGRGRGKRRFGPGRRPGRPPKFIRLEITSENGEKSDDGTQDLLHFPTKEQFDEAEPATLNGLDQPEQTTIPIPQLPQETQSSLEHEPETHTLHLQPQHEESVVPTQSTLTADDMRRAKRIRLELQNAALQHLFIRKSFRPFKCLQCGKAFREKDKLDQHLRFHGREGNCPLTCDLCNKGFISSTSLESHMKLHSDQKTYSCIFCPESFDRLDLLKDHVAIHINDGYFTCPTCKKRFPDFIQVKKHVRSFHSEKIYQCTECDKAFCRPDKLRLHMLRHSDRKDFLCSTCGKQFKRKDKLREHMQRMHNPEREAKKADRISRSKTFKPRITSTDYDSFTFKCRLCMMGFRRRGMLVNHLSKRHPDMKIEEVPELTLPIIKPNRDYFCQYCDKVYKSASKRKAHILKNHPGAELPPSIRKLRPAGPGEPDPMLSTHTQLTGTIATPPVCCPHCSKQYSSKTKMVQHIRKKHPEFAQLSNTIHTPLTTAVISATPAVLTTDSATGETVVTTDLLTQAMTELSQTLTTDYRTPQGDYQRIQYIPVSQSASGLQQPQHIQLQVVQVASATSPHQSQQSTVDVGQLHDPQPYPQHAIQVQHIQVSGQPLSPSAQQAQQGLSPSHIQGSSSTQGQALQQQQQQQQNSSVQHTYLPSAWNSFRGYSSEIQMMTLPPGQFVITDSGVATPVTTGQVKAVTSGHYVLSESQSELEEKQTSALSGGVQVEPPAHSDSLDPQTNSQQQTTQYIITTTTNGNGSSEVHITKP
UniProt Q9NRN9: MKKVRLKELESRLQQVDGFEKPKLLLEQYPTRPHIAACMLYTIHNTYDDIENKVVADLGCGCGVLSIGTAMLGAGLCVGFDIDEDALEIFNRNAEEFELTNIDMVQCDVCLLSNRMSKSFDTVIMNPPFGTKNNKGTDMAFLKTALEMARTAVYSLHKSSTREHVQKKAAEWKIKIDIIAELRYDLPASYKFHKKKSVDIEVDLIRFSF
UniProt Q9NWD9: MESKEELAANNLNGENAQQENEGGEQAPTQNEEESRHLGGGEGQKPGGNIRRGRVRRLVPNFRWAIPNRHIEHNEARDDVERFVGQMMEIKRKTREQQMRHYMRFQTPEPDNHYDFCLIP
UniProt Q9NRR4: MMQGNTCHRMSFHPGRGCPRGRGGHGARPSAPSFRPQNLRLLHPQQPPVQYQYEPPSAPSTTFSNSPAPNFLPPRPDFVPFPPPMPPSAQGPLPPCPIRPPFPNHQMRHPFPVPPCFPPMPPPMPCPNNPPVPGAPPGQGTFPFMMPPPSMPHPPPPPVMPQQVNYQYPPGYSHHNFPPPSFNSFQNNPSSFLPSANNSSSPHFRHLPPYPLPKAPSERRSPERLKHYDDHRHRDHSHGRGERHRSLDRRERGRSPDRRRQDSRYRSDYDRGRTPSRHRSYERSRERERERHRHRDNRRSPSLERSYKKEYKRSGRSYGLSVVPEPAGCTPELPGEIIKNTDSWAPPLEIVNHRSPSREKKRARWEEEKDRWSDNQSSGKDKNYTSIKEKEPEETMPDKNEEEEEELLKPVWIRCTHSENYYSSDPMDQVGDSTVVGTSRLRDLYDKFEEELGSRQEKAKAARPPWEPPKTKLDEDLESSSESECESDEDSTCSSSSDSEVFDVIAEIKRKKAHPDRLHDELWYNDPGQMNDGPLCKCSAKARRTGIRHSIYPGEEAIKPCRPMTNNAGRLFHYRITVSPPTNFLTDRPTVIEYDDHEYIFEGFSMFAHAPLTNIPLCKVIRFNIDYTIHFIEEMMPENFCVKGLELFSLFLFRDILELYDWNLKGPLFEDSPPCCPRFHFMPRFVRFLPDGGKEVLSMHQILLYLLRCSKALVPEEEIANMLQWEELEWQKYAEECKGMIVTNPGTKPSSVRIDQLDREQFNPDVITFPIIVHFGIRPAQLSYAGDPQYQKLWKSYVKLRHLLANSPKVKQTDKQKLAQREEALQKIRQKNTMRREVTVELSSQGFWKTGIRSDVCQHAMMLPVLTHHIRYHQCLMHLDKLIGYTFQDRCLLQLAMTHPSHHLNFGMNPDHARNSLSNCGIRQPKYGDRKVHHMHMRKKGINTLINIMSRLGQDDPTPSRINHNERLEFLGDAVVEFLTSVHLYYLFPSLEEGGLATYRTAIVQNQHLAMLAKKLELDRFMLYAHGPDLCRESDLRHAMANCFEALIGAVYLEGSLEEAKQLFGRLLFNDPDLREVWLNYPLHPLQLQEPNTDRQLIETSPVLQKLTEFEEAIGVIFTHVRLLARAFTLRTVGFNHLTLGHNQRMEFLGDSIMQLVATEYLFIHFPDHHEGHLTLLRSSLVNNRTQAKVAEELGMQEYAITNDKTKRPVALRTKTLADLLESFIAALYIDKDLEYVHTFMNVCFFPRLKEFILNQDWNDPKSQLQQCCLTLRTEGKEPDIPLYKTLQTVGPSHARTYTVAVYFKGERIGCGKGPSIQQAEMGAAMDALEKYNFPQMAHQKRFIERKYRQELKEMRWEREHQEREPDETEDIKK
UniProt Q9NYB0: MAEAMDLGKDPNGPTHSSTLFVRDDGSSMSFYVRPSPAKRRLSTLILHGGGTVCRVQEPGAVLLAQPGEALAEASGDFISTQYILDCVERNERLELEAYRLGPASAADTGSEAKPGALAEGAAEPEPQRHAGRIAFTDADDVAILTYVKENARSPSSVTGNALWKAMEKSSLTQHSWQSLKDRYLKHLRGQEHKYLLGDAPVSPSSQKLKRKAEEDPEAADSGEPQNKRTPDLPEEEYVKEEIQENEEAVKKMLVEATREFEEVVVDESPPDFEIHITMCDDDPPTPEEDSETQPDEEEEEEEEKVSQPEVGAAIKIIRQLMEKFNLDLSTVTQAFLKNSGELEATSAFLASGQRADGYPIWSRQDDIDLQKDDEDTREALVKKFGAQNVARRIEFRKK
UniProt Q9NWK9: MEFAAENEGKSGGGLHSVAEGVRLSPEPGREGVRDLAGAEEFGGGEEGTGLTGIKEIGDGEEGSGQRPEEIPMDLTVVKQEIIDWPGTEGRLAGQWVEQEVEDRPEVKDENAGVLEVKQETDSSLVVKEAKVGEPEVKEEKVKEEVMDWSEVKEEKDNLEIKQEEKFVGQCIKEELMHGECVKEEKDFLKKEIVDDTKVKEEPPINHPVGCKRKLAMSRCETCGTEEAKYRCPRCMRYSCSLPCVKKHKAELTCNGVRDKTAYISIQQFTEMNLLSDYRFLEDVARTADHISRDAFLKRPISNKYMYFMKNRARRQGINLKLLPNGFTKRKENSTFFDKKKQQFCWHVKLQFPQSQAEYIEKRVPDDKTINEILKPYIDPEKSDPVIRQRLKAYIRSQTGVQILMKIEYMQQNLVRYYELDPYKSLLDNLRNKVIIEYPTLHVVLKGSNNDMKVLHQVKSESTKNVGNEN
UniProt Q9NRA0: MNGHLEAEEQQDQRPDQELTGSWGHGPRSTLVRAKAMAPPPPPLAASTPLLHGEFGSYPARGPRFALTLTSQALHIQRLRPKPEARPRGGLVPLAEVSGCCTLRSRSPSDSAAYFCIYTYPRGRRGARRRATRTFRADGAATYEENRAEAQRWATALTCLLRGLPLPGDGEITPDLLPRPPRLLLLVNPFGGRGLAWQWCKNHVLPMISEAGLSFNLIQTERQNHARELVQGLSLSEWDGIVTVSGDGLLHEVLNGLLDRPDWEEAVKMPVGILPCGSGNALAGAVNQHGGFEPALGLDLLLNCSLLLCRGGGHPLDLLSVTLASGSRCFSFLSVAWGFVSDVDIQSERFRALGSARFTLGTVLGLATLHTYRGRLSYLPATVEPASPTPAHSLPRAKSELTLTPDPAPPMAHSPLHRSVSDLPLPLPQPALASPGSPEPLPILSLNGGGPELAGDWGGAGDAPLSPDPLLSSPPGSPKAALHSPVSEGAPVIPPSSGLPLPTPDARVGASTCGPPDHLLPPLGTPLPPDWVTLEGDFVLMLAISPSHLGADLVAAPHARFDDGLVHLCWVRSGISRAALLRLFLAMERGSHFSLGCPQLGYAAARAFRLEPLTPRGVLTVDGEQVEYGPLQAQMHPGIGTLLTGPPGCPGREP

This is one part of the list. Most values lie at the level of the controls, where differences are scatter.

Compound in the experiment: CN[C@@H]1C[C@H]2O[C@@](C)([C@@H]1OC)n1c3ccccc3c3c4c(c5c6ccccc6n2c5c31)C(=O)NC4 [staurosporine]
In words: log2 fold change of tryptic peptide abundance, ligand vs vehicle (limited proteolysis) (log2 ratio); higher = more trypsin-susceptible (destabilized). The following applies: ligand concentration: 20 uM; sample: K562 cleared lysate; digestion: 4 min, 22 C (HT-PELSA RT4min, Orbitrap Astral).
For the target “RRN3 (peptide sequence: LPGDAAASSSAVKK, peptide start residue: 10) (UniProt Q9NYV6)”, the log2 fold change is 0.27.

Take “FAM114A2 (peptide sequence: SLAELTACSIELFHK, peptide start residue: 381) (UniProt Q9NRY5)”: the log2 fold change was determined as 0.418.

As to “UniProt Q9NXR7 (peptide sequence: ELVQQYHQFQCSR, peptide start residue: 119)”, the log2 fold change was determined as 0.369. Take “PRDM10 (peptide sequence: IEEVPELTLPIIKPNR, peptide start residue: 755) (UniProt Q9NQV6)”: the log2 fold change turned out to be 0.219. Turning to “METTL5 (peptide sequence: KSVDIEVDLIRFSF, peptide start residue: 196) (UniProt Q9NRN9)”, the log2 fold change was found to be 0.274. With “BEX4 (peptide sequence: HLGGGEGQKPGGNIRR, peptide start residue: 37) (UniProt Q9NWD9)”, the log2 fold change was 0.526. Then “UniProt Q9NRR4 (peptide sequence: NTDSWAPPLEIVNHR, peptide start residue: 340)”, with 0.347. As for “TERF2IP (peptide sequence: QDDIDLQKDDEDTR, peptide start residue: 365) (UniProt Q9NYB0)”, the figure is -0.117. In the case of “ZNHIT6 (peptide sequence: NKVIIEYPTLHVVLK, peptide start residue: 432) (UniProt Q9NWK9)”, the log2 fold change is -0.54. As for “SPHK2 (peptide sequence: AKSELTLTPDPAPPMAHSPLHR, peptide start residue: 397) (UniProt Q9NRA0)”, the figure is 0.403.
